# Results are given in words; binding and its absence hold for the method and conditions named. Some entries that bind do so weakly or less than the wild type.
# Amino acid sequences for entries named in this document (tags omitted). Residues count along the entry.
# UniProt P03452, residues 18-519: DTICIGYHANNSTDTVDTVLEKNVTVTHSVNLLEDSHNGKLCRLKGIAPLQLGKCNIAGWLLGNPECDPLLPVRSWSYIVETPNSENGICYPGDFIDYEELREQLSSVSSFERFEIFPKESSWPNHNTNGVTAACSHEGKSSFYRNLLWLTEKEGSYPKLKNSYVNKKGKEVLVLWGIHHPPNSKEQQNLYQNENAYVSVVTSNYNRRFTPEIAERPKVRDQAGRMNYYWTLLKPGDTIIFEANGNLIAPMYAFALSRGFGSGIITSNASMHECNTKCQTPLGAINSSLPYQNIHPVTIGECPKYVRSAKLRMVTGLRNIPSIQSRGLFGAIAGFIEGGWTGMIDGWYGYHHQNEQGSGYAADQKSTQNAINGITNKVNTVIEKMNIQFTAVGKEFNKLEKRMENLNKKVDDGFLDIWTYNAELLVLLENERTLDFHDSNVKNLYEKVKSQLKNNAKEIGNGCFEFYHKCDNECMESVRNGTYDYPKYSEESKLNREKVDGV
# Columns and labels:
# [1] = molecular target: Recombinant HA antigen A/Puerto Rico/8/1934 (H1N1) (influenza A virus A/Puerto Rico/8/1934 (H1N1)) (UniProt P03452); assay: ELISA on plate-coated recombinant HA (AUC, Figure 1)
# [2] = molecular target: Recombinant HA antigen A/X-31 (H3N2) (influenza A virus A/X-31 (H3N2)) (UniProt P03437); assay: as above
Binder,binding [1],binding [2]
"Clone 6 (antibody, V domains shown) VH: QVQLEQSGAEVKKPGSSVKVSCKASGPMFSRSAFSWVRQAPGQGLEWMGRIIPTVDLKNYAQKFQGRVTFTADKSTATSYMELRSLKSEDTAVYYCARMGSGSSYYGMDVWGLGTTVTVSS VL: DIVMTQSPLSLPVIPGEPASISCRSSQSLLQSNGNNYLDWYLQKPGQSPQLLIYLGSNRASGVPDRFSGSGSGTDFTLTISRVEAEDVGVYYCLQARQSSVLTFGGGTKLEIK",binds,binds
"Clone 7 (antibody, V domains shown) VH: QVQLQESGPGLVKPSETLSLTCSVSGGPLTSSTYFWGWIRQPPGKGLEWLGSINFRGTTDNAPSLKSRVTLSIDTSTHQFSLRLSSVTAKDTAVYYCARHTQRLTVFTVVHGFDLWGQGTVVSVSS VL: QSALTQPASVSGSPGQSITISCTGATGDIGVSDFVSWYQQHPGKAPKLIIFDVTNRPSGVSNRFSGSKSVNTASLTISGLQAEDEADYYCCLYSTRSRDWEFGGGTKLTVL",binds,

# From EP4703377A1
